Structures can show the parent of a compound that is named as a salt. This is one part of the list. Single values are uncertain here, since repeats match poorly.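 Cells: ReNCell VM human fetal ventral-midbrain neural progenitors, differentiated mitogen-free. Blinded raters compared doublecortin-stained (early neurons) or tyrosine hydroxylase-stained (dopaminergic neurons) images with untreated wells, where 0 means no change. After repeats and both raters were averaged, compounds scoring 2 or above became hits for retesting.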

Experiment [1] deals with ReNCell VM. The experiment in a line: neuronal differentiation score (DCX+ cell fraction vs untreated, manual image score) (score (-3 to 3)); higher = more neuronal differentiation. The following applies: 2 uM, 2 weeks.
Experiment [2] has as its system ReNCell VM. As to the kind of experiment: dopaminergic neuron differentiation score (TH+ cell fraction vs untreated, manual image score) (score (0 to 3)); higher = more TH+ dopaminergic neuron differentiation. The following applies: 2 uM, 4 weeks, BDNF 10 ng/ml + GDNF 10 ng/ml.

Turning to `FC(F)(F)COCC(F)(F)F`, the neuronal differentiation score with ReNCell VM [1] (library: Spectrum) is inactive: 0. Also, the “dopaminergic neuron differentiation score” value in the experiment on ReNCell VM [2] (library: Spectrum) was inactive: 0.
For `CC(c1cc2ccccc2s1)N(O)C(N)=O` (centres undefined), the neuronal differentiation score in the experiment with ReNCell VM [1] (library: Spectrum) is inactive: -1. Besides, the “dopaminergic neuron differentiation score” value with ReNCell VM [2] (library: Spectrum) was inactive: 0.
Consider `C[C@H](CCC(=O)O)[C@H]1CC[C@H]2[C@@H]3[C@@H](O)C[C@@H]4C[C@H](O)CC[C@]4(C)[C@H]3CC[C@]12C` [Urosiol], for which, in the experiment with ReNCell VM [1] (library: Prestwick), the neuronal differentiation score was inactive: 0. Also, the “dopaminergic neuron differentiation score” value in the experiment with ReNCell VM [2] (library: Prestwick) is inactive: 0.
Consider `CCN(CC)CCNC(=O)c1cc(Cl)c(N)cc1OC` [Metoclopramide monohydrochloride], for which, in the experiment on ReNCell VM [1] (library: Prestwick), the neuronal differentiation score is inactive: 0. The “dopaminergic neuron differentiation score” value with ReNCell VM [2] (library: Prestwick) is inactive: 0.
Turning to `OCCNCCCOc1cccc(Cl)c1Cl` [2,3-DCPE hydrochloride], the neuronal differentiation score in the experiment on ReNCell VM [1] (library: Tocriscreen) is inactive: 0. Besides, the “dopaminergic neuron differentiation score” value in the experiment with ReNCell VM [2] (library: Tocriscreen) is inactive: 0.
As to `C=CCN1CCc2cc(O)c(O)cc2C(c2ccccc2)C1` (centres undefined), in the experiment on ReNCell VM [1] (library: Tocriscreen), the neuronal differentiation score is inactive: 0. For the same molecule, in the experiment on ReNCell VM [2] (library: Tocriscreen), the “dopaminergic neuron differentiation score” value is inactive: 0.
`CC(=O)[C@@]1(O)CC[C@H]2[C@@H]3C=C(Cl)C4=CC(=O)[C@@H]5C[C@@H]5[C@]4(C)[C@H]3CC[C@@]21C`: the neuronal differentiation score with ReNCell VM [1] (library: Spectrum) was inactive: 0. Also, the “dopaminergic neuron differentiation score” value with ReNCell VM [2] (library: Spectrum) was inactive: 0.
Regarding `Cc1cc(O)cc(C)c1Cl`, the neuronal differentiation score in the experiment on ReNCell VM [1] (library: Spectrum) was inactive: 0. In addition, the “dopaminergic neuron differentiation score” value in the experiment with ReNCell VM [2] (library: Spectrum) was inactive: 0.
`CN(C)CCCOc1nn(Cc2ccccc2)c2ccccc12` [Benzydamine hydrochloride]: in the experiment with ReNCell VM [1] (library: Prestwick), the neuronal differentiation score is inactive: 0. In addition, in the experiment with ReNCell VM [2] (library: Prestwick), the “dopaminergic neuron differentiation score” value was inactive: 0.
`CC(C)[C@@H]1CC[C@@H](C)C[C@H]1O` [L-menthol]: the neuronal differentiation score with ReNCell VM [1] (library: Phytochemical) is inactive: 0. The “dopaminergic neuron differentiation score” value with ReNCell VM [2] (library: Phytochemical) was inactive: 0.
Consider `CC(=O)O[C@@H]1CC2C(C)(C)C(=O)C3OC3[C@]2(C)C2CC[C@@]3(C)[C@H](c4ccoc4)OC(=O)C4OC43[C@@]21C` (some centres undefined), for which the neuronal differentiation score with ReNCell VM [1] (library: Spectrum) is inactive: 0. In the experiment with ReNCell VM [2] (library: Spectrum), the “dopaminergic neuron differentiation score” value was inactive: 0.
Take `CC[C@H](C)C(=O)O[C@H]1C[C@@H](C)C=C2C=C[C@H](C)[C@H](CC[C@@H]3C[C@@H](O)CC(=O)O3)[C@H]21`: the neuronal differentiation score in the experiment with ReNCell VM [1] (library: Spectrum) is inactive: 0. In addition, the “dopaminergic neuron differentiation score” value in the experiment with ReNCell VM [2] (library: Spectrum) was inactive: 0.

The record behind these values is the supplement of paper PMC4635364.
